{"source": "PubChem BioAssay AID540256", "about": "(National Center for Advancing Translational Sciences (NCATS), 2011)", "note": "The whole screen tested about 300,000 compounds, of which about 3,700 (1.2%) were called active. The inconclusive results got no clear call from the source; some entries with a clear call stand among them for comparison. Calls come from the whole dose curve; tested in HEK293 cells. Where the call is inconclusive, the potency comes from a doubtful curve fit. Potency is the fitted concentration of half-maximal effect.", "data": [{"experiment": "qHTS for Inhibitors of binding or entry into cells for Lassa Virus; note: nearly all actives have a fitted effect of over 50% in size", "details": "Lassa virus pseudotype entry inhibition, cell reporter; series mostly up to 37.9 µM", "values": [{"smiles": "OCCn1cnc2c(SCc3ccccc3)ncnc21", "Potency": "inconclusive: 2.51 µM [inhibitor, full curve, poor fit]"}, {"smiles": "O=C(NCCc1ccccc1)C(=Cc1ccc(C(=O)O)cc1)C(=O)NCCc1ccccc1", "Potency": "inactive"}, {"smiles": "Cc1ccc(-c2cc(C(F)F)nc(NCc3cccnc3)n2)cc1", "Potency": "inconclusive: 14.6 µM [inhibitor, partial curve, poor fit]"}, {"smiles": "CN(C)C(CNC(=S)Nc1ccc(Cl)cc1)c1cccnc1", "note": "(stereo unspecified)", "Potency": "inactive"}, {"smiles": "COc1ccccc1NC(=S)N/N=C/c1ccc(O)cc1", "Potency": "inconclusive: 29.1 µM [inhibitor, single point]"}, {"smiles": "O=C(Nc1ccc(N2CCOCC2)c(Cl)c1)c1ccc(S(=O)(=O)N2CCOCC2)cc1", "Potency": "inconclusive: 7.94 µM [inhibitor, partial curve, poor fit]"}, {"smiles": "Cn1c(N)c(-c2ccccc2)c2ccc([N+](=O)[O-])cc2c1=O", "Potency": "inconclusive: 7.08 µM [inhibitor, partial curve, poor fit]"}, {"smiles": "CCc1ccc(OCc2cc(=O)n3cc(C)sc3n2)cc1", "Potency": "inactive"}, {"smiles": "CCOc1ccc2oc(=O)cc(CN3CCN(c4ccccc4OC)CC3)c2c1", "Potency": "inactive"}, {"smiles": "COC(=O)C1CCN(c2csc3ccc(Cl)cc3c2=O)CC1", "Potency": "inactive"}, {"smiles": "N#Cc1c(NC(=S)NC(=O)C2CCCC2)sc2c1CCCCC2", "Potency": "inactive"}, {"smiles": "COc1ccccc1N1CCN(C(=O)c2cc(C)oc2C)CC1", "Potency": "inconclusive: 22.4 µM [inhibitor, single point]"}, {"smiles": "CCCc1cc(=O)[nH]c(SCC(=O)c2ccc3c(c2)OCCO3)n1", "Potency": "inactive"}, {"smiles": "Cc1cccc(C)c1NC(=O)COC(=O)c1cc[n+]([O-])cc1", "Potency": "inconclusive: 35.5 µM [activator, single point]"}, {"smiles": "Cc1ccc2c(c1)cc(CN(Cc1ccco1)C(=O)N1CCOCC1)c1nnnn12", "Potency": "inconclusive: 3.55 µM [inhibitor, full curve]"}, {"smiles": "CCCOc1ccc(CNC(=O)CN2C(=O)c3cccnc3Oc3ccc(C)cc32)cc1", "Potency": "inconclusive: 35.5 µM [inhibitor, single point]"}, {"smiles": "CC(C)=C1SC(N2CCN(c3cccc(Cl)c3)CC2)=NC1=O", "Potency": "inactive"}, {"smiles": "CC/C(=N\\NC(=O)c1c(-c2ccccc2)noc1C)c1ccc(C)o1", "Potency": "inconclusive: 29.1 µM [inhibitor, partial curve, poor fit]"}, {"smiles": "COc1cc(-c2nnc(SCC(=O)c3ccc(C)cc3)o2)cc(OC)c1OC", "Potency": "inconclusive: 29.1 µM [inhibitor, single point]"}, {"smiles": "O=c1[nH]c2ccccc2n1CCCN1CCN(C(c2ccccc2)c2ccccc2)CC1", "Potency": "active: 18.4 µM"}, {"smiles": "Nc1nc(Cl)nc2c1ncn2[C@@H]1O[C@H](CO)[C@@H](O)[C@H]1O", "Potency": "inconclusive: 29.1 µM [inhibitor, partial curve, poor fit]"}, {"smiles": "CCn1nnc2cc(C(=O)Nc3ccc(Br)cc3F)ccc21", "Potency": "inconclusive: 17.8 µM [activator, partial curve, poor fit]"}, {"smiles": "O=C(CCl)NCCCCCCCCCNC(=O)CCl", "Potency": "inconclusive: 0.58 µM [inhibitor, partial curve, poor fit]"}, {"smiles": "COc1ccc2c(c1)C13CCCCC1C(C2)N(C)CC3", "note": "(stereo unspecified)", "Potency": "inconclusive: 14.6 µM [inhibitor, partial curve, poor fit]"}, {"smiles": "CCOc1ccc(-c2nc(SCC(=O)Nc3cc(F)ccc3F)n3[nH]c(=O)cc3n2)cc1", "Potency": "inactive"}, {"smiles": "c1cc[n+](CCC[n+]2ccccc2)cc1", "Potency": "inconclusive: 35.5 µM [activator, single point]"}, {"smiles": "COc1ccc(N(C(=O)c2snc(C(N)=O)c2N)C(C(=O)NC2CCCC2)c2ccc(C)o2)c(OC)c1", "note": "(stereo unspecified)", "Potency": "inconclusive: 14.1 µM [inhibitor, single point]"}, {"smiles": "CN(Cc1ccc(Cl)cc1Cl)C(=O)c1cccc(S(=O)(=O)N2CCN(c3ccccc3)CC2)c1", "Potency": "inconclusive: 2.82 µM [inhibitor, partial curve, poor fit]"}, {"smiles": "COc1ccc(CNC(=O)c2cc(-c3cccs3)on2)cc1", "Potency": "inactive"}, {"smiles": "CCn1c2ccccc2c2cc(NC(=O)c3cccc(OC)c3)ccc21", "Potency": "inconclusive: 13 µM [inhibitor, single point]"}, {"smiles": "Cc1cc2nc(CCN(C(=S)NCC(C)C)C3CCCC3)[nH]c2cc1C", "Potency": "inconclusive: 29.1 µM [inhibitor, single point]"}, {"smiles": "CC1CCCCC1NC(=O)CCCc1nc2ccccc2c(=O)[nH]1", "note": "(stereo unspecified)", "Potency": "inactive"}, {"smiles": "Cc1ccc(C(=O)c2oc3ccccc3c2NC(=O)Cc2ccccc2)cc1", "Potency": "inconclusive: 35.5 µM [inhibitor, single point]"}, {"smiles": "CCCCn1c(=N)n(CCOc2ccccc2OC)c2ccccc21", "Potency": "inconclusive: 10 µM [inhibitor, partial curve, poor fit]"}, {"smiles": "Cc1cc(=O)n2[nH]c(-c3ccc(F)cc3)nc2n1", "Potency": "inconclusive: 20 µM [activator, partial curve, poor fit]"}, {"smiles": "CC(=O)NC(=S)Nc1ccc(S(=O)(=O)N(C)Cc2ccccc2)cc1", "Potency": "inactive"}, {"smiles": "COC(=O)c1cc(NC(=O)C2COc3ccccc3O2)cc(C(=O)OC)c1", "note": "(stereo unspecified)", "Potency": "inactive"}, {"smiles": "O=C(Nc1cccnc1)c1ccc(COc2cc(Cl)ccc2Cl)o1", "Potency": "inconclusive: 11.2 µM [inhibitor, partial curve]"}, {"smiles": "CCN(C(=O)Cn1ncc2c(=O)oc3ccc(C)cc3c21)c1cc(OC)ccc1OC", "Potency": "inactive"}, {"smiles": "COc1cc(OC)nc(-n2ncc(Br)c(Br)c2=O)n1", "Potency": "active: 1.26 µM"}, {"smiles": "Clc1ccc2c(c1)c1cc(Cl)ccc1n2CN1CCOCC1", "Potency": "inconclusive: 35.5 µM [inhibitor, single point]"}, {"smiles": "O=S1(=O)N(Cc2ccccc2F)CCCN1Cc1c(F)cccc1Cl", "Potency": "inconclusive: 0.447 µM [inhibitor, full curve, poor fit]"}, {"smiles": "O=C(Nc1ccccc1F)c1nc(SCc2ccc(F)cc2)ncc1Cl", "Potency": "inactive"}, {"smiles": "CCCOc1ccccc1C(=O)N1CCCCC1CCN1CCOCC1", "note": "(stereo unspecified)", "Potency": "inactive"}, {"smiles": "Cc1ccc(C(=O)N2CCC(Cc3ccccc3)CC2)cc1S(=O)(=O)N1CCOCC1", "Potency": "inconclusive: 20 µM [inhibitor, partial curve, poor fit]"}, {"smiles": "O=C(CCC1CCCC1)N1CCc2c([nH]c3ccccc23)C1c1ccc(Cl)cc1", "note": "(stereo unspecified)", "Potency": "inconclusive: 2.24 µM [inhibitor, full curve, poor fit]"}]}]}
